These results are taken from ChEMBL document CHEMBL1649066, “An imidazopiperidine series of CCR5 antagonists for the treatment of HIV: the discovery of N-{(1S)-1-(3-fluorophenyl)-3-[(3-endo)-3-(5-isobutyryl-2-methyl-4,5,6,7-tetrahydro-1H-imidazo[4,5-c]pyridin-1-yl)-8-azabicyclo[3.2.1]oct-8-yl]propyl}acetamide (PF-232798)” (J Med Chem, 2011).

By UniProt entry, the sequences of proteins in these tests, tags left out. Where a name states a change or a piece, a line headed by the entry shows the natural chain unless it says otherwise.
UniProt Q12809: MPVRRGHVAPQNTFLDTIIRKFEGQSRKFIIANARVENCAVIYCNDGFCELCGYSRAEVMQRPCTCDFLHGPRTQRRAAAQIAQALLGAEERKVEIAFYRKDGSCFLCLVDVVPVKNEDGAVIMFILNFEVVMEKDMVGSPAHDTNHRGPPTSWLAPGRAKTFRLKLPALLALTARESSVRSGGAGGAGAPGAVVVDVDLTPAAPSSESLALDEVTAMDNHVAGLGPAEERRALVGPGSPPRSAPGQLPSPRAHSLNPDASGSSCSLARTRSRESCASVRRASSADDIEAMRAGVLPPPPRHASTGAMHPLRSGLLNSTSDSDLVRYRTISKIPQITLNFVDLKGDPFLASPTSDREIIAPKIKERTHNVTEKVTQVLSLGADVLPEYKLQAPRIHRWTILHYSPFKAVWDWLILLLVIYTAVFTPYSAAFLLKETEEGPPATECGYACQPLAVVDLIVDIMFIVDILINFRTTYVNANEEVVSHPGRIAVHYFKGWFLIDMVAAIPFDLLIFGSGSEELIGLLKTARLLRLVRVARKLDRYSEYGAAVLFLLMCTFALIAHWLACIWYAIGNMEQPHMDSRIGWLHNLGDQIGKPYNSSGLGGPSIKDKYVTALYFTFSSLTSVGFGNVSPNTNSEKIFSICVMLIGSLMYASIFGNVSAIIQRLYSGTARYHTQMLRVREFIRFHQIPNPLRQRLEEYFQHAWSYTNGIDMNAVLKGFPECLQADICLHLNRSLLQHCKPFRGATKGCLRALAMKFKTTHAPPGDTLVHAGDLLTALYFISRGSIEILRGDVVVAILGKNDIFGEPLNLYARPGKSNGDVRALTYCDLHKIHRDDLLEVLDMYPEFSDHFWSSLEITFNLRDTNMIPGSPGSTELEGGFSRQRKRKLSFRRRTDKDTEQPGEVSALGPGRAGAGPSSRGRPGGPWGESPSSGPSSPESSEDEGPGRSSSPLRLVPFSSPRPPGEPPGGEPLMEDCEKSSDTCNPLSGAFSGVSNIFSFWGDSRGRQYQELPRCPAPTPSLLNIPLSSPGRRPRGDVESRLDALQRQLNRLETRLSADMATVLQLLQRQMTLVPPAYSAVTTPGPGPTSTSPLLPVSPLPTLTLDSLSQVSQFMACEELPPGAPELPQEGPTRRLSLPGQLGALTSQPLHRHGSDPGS

Data set [1] can be described thus: Octanol-buffer partition coefficient, log D of the compound. Particulars: octanol/water.
In a further data set the target is hERG (KCNH2) (Homo sapiens, UniProt Q12809). Nature of the data set: in vitro. Particulars: hek293.

Regarding `COC(=O)N1CCc2nc(C)n([C@H]3C[C@H]4CC[C@@H](C3)N4CC[C@H](NC(C)=O)c3cccc(F)c3)c2C1`, in data set [1], the logD – broadly, lipophilicity at a set pH, counting ionised and neutral species – is 1.9. For the same compound, 0.3 µM produced 0% inhibition on hERG (KCNH2).
